# These are yes or no findings as the source states them, for the method shown. Binding seen in cells or lysates may run through a third protein. Some entries that bind do so weakly or less than the wild type.
# Amino acid sequences for entries named in this document (tags omitted). A change or cut given only in a name is not applied to a line headed by its entry.
# UniProt P70452: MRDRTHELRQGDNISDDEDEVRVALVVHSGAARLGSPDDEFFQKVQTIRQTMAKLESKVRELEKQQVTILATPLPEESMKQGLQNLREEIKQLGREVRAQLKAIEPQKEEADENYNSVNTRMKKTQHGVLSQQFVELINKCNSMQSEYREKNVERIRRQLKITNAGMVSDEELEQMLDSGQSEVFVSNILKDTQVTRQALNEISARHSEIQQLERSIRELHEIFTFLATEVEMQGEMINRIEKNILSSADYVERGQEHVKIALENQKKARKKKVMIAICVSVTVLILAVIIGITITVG
# UniProt P63044: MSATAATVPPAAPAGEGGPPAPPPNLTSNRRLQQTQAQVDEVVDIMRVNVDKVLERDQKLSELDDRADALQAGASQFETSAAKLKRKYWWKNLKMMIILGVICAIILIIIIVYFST
# B1: SNAP23 (endogenous, 3T3-L1 adipocytes) (protein, UniProt O09044 1-210)
# chain: MDNLSPEEVQLRAHQVTDESLESTRRILGLAIESQDAGIKTITMLDEQGEQLNRIEEGMDQINKDMREAEKTLTELNKCCGLCICPCNRTKNFESGKNYKATWGDGGDNSPSNVVSKQPSRITNGQPQQTTGAASGGYIKRITNDAREDEMEENLTQVGSILGNLKNMALDMGNEIDAQNQQIQKITEKADTNKNRIDIANTRAKKLIDS
# Target: Phos-Sx4-Myc (full-length Sx4 with a double Myc-tag between residues 36 and 37 and with Y115 and Y251 both mutated to glutamic acid) (UniProt P70452)
# Test: proximity ligation; fixed, permeabilised 3T3-L1 adipocytes stably expressing myc-tagged Sx4; anti-Myc with anti-SNAP23, anti-VAMP2 or anti-Munc18c; Duolink
row,Molecule,binding
1,"VAMP2 (endogenous, 3T3-L1 adipocytes) (from UniProt P63044 1-116)",binds
2,B1,binds
